For this test, the target named is BchB (Rhodobacter sphaeroides) (UniProt Q9Z5D9). The test is described as follows: co-purification on Ni2+-NTA.

Chains of the proteins cited; added tags and fusions are not shown. Lines headed by an entry give the natural chain unless they say otherwise; changes in a name come on top.
UniProt Q9Z5D9: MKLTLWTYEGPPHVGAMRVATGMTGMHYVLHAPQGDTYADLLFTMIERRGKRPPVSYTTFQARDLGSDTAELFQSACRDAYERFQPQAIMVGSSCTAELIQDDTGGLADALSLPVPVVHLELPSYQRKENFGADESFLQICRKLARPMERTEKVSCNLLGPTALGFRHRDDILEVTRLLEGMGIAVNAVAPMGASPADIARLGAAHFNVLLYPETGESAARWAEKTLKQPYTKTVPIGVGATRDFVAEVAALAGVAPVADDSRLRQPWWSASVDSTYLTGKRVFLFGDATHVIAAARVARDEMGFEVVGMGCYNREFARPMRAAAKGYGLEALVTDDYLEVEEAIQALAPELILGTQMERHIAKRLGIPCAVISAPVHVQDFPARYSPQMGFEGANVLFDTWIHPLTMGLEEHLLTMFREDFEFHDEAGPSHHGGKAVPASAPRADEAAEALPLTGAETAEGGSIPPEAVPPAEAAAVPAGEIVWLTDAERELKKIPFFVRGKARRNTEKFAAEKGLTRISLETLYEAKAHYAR
UniProt Q9RFD4: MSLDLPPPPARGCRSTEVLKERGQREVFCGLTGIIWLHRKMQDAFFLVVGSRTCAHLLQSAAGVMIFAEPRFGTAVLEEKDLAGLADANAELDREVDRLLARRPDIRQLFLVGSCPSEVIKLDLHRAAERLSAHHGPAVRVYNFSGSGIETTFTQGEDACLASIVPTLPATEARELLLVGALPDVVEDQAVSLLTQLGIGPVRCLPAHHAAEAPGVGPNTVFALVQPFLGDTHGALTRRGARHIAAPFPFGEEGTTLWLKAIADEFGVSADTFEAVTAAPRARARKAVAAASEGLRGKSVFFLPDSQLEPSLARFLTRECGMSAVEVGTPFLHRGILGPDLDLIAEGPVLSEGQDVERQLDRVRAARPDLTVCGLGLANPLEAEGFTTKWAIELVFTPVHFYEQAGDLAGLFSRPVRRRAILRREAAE

These are yes or no findings as the source states them, for the method shown. Binding seen in cells or lysates may run through a third protein. Binding can be weak; no strength is given.

As for BchN (from UniProt Q9RFD4), the binding entry is on record as “binds”.

The values are drawn from doi:10.1101/811059.
